The other results are listed elsewhere or left out. Small differences around the control level are noise.
The targets below were run with Cc1nc(Nc2ncc(C(=O)Nc3c(C)cccc3Cl)s2)cc(N2CCN(CCO)CC2)n1 [dasatinib] (assay: log2 fold change of tryptic peptide abundance, ligand vs vehicle (limited proteolysis) (log2 ratio); higher = more trypsin-susceptible (destabilized)). Conditions: ligand concentration: 5 uM; sample: K562 cleared lysate.

The chains behind the UniProt entries cited, without tags or fusion partners. Where a name states a change or a piece, a line headed by the entry shows the natural chain unless it says otherwise.
UniProt Q8IVD9: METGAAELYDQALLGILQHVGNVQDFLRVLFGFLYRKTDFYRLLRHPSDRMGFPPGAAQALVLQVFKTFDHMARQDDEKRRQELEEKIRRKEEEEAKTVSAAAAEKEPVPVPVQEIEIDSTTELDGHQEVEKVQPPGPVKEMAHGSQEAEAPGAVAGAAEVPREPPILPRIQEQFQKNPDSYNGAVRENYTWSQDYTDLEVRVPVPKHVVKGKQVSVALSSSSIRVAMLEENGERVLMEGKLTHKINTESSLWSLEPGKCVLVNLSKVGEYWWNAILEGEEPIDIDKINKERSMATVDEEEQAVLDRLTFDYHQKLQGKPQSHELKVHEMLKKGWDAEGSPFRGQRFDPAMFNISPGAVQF
UniProt Q86XE0: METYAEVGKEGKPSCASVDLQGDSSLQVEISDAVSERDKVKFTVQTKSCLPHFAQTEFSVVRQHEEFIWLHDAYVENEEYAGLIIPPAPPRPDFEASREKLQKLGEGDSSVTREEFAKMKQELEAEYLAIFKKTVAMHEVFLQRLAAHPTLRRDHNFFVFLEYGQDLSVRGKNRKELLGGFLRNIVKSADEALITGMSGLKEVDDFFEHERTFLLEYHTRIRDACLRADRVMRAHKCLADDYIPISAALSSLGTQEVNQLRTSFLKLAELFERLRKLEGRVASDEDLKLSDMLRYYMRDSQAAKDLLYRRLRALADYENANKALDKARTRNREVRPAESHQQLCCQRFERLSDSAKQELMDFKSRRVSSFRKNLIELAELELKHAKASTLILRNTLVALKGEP
UniProt Q86XN8: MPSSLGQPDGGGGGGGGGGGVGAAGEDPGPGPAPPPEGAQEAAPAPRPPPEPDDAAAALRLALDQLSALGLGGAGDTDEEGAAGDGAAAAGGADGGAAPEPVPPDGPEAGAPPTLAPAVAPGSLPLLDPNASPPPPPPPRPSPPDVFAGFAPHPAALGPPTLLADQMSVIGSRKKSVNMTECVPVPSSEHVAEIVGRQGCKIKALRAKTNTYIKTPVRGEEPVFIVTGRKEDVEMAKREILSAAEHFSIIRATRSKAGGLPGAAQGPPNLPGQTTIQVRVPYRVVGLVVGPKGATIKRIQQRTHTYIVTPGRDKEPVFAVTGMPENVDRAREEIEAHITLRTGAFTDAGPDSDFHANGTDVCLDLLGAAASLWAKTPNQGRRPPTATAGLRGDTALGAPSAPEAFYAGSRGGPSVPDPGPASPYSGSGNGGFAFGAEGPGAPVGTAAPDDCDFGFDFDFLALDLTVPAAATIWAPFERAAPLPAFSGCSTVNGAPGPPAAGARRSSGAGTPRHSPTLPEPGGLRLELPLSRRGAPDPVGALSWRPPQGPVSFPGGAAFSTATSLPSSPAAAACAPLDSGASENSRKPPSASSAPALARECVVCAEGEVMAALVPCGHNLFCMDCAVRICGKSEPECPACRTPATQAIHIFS
UniProt Q8N129: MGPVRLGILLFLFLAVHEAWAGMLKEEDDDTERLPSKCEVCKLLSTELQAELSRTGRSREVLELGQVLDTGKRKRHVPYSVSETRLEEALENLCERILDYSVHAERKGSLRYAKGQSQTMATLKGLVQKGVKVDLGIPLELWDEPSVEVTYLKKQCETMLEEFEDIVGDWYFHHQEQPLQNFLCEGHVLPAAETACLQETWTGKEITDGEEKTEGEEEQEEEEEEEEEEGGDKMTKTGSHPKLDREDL
UniProt Q8N0Z6: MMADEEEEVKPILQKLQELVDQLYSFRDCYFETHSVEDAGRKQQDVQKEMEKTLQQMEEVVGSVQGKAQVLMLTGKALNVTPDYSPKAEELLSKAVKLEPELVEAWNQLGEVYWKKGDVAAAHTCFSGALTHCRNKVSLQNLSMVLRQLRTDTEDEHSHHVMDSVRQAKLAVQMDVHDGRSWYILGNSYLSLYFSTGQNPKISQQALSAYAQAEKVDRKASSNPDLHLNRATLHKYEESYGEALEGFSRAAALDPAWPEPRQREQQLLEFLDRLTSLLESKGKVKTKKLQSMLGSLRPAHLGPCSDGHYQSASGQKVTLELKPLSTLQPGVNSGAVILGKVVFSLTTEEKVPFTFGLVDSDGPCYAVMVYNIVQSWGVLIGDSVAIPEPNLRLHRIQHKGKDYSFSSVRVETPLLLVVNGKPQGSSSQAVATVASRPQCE
UniProt Q8IZ40: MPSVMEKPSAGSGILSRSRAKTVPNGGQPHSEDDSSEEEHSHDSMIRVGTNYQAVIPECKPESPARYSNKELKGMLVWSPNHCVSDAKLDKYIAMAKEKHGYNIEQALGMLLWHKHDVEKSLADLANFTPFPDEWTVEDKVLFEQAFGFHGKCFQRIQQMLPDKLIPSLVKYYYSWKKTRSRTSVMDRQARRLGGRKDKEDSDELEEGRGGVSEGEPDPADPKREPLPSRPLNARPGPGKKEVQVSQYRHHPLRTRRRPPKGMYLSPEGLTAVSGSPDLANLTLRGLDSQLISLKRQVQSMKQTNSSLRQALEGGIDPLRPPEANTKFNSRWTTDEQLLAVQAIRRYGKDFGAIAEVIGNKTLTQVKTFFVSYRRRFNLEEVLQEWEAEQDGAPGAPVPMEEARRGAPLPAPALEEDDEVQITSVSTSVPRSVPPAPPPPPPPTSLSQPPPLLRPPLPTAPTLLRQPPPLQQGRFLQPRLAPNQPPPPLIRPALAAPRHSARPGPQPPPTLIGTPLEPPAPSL
UniProt Q8IVM0: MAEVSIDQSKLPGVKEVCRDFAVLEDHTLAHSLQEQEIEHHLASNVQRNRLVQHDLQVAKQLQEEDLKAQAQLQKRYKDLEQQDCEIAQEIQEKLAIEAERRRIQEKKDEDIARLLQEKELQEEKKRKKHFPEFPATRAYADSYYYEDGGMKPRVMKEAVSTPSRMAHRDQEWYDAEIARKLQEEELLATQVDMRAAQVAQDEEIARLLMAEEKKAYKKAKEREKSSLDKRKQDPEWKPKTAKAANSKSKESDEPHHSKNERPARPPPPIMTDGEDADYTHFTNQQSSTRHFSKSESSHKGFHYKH
UniProt Q8IUI4: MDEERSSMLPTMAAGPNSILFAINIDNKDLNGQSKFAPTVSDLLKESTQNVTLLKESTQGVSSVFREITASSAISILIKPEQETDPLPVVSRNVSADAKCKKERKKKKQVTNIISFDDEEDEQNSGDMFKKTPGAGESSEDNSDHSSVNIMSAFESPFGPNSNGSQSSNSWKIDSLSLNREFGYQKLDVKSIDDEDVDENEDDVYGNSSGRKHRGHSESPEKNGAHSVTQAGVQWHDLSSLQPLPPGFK
UniProt Q86WG5: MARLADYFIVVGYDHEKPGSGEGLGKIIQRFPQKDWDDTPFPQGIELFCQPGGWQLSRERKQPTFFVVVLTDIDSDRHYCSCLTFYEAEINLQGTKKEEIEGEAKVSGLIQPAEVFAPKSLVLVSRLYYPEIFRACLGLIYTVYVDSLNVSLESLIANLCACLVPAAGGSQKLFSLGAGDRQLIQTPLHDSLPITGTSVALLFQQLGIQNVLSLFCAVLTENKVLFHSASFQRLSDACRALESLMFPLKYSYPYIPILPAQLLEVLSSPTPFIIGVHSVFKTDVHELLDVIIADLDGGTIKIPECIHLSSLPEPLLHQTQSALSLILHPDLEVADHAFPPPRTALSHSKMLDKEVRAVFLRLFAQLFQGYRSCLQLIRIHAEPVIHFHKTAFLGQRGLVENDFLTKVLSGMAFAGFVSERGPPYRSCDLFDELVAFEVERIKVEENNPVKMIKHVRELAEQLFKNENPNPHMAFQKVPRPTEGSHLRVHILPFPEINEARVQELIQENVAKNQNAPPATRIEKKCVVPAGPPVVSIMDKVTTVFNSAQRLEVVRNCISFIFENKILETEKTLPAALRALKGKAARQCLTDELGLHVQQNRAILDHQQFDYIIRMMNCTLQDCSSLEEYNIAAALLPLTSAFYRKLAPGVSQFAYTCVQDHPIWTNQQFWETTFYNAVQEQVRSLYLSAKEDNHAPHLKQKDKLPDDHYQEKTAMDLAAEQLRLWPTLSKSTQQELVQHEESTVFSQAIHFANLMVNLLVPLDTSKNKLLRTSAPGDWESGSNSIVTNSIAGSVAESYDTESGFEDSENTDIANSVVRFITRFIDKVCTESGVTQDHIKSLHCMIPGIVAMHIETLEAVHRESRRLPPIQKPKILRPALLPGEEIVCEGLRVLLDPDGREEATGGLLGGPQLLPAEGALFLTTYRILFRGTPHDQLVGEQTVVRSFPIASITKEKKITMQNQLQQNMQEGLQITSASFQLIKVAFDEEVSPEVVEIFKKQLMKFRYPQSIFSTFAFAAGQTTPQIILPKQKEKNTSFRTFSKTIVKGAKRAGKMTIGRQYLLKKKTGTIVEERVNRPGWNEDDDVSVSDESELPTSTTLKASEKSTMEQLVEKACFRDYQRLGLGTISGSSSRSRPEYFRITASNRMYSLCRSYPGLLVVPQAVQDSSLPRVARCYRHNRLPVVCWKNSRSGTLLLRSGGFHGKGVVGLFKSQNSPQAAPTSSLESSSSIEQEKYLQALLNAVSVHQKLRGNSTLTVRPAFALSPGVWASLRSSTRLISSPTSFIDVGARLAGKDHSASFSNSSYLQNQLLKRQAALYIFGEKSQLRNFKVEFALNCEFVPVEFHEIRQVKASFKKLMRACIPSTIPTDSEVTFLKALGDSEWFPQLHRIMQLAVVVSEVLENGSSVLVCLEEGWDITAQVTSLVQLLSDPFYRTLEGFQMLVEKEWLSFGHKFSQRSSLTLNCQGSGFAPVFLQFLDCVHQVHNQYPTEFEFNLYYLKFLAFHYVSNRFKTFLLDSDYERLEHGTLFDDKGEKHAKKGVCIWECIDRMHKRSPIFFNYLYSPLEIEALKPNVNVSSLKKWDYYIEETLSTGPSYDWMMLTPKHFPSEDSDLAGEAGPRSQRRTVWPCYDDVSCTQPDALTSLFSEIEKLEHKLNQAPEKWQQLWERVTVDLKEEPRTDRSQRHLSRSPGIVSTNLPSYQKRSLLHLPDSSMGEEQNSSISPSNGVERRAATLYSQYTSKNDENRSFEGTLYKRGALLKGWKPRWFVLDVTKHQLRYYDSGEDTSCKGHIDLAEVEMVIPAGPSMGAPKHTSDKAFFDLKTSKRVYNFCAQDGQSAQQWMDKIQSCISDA
UniProt Q8IYN0: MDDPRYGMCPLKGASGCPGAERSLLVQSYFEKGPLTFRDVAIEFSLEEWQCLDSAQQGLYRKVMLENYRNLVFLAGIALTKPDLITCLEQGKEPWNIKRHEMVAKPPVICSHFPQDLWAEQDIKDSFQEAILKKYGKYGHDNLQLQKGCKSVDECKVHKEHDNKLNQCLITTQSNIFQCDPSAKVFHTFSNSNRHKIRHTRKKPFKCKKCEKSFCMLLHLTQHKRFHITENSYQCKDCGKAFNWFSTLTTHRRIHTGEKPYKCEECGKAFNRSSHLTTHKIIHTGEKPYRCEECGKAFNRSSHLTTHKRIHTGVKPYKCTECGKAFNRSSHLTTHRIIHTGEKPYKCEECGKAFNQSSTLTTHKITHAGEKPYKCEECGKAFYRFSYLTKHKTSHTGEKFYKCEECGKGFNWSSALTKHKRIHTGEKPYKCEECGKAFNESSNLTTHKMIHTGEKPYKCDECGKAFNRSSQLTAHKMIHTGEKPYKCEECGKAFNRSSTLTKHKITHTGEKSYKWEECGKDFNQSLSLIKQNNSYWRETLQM
UniProt Q86UX6: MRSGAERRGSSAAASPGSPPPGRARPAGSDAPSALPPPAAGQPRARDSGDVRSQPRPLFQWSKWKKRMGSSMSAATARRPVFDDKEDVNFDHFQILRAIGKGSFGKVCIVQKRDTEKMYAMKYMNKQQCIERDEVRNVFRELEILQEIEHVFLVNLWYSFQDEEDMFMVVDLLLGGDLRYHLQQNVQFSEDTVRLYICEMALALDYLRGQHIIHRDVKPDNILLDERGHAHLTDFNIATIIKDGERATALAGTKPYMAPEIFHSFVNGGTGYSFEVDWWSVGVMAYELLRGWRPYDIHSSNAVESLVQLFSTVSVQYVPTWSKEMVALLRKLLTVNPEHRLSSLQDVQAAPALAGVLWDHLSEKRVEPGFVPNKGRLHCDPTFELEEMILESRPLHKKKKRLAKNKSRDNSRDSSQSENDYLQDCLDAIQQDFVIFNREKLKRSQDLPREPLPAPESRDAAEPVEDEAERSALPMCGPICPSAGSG
UniProt Q86YG4: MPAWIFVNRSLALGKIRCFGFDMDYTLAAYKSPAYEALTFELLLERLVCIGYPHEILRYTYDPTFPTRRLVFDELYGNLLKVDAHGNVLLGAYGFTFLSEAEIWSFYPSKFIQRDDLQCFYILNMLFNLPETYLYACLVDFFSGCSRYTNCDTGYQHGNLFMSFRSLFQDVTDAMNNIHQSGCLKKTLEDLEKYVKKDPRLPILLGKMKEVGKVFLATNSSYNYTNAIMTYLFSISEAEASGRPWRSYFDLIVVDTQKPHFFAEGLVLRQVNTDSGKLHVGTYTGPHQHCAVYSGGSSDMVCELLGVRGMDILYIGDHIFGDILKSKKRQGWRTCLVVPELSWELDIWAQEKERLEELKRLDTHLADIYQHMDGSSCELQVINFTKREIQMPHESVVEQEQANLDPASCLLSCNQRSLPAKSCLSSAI

| Target | log2 fold change |
| --- | --- |
| NUDCD3 (peptide sequence: NPDSYNGAVR, peptide start residue: 178) (UniProt Q8IVD9) | 0.53 |
| FAM126B (peptide sequence: YSTVSLQEDR, peptide start residue: 487) (UniProt Q8IXS8) | 0.115 |
| UniProt Q86XE0 (peptide sequence: MKQELEAEYLAIFKK, peptide start residue: 125) | -0.188 |
| MEX3D (peptide sequence: TPATQAIHIFS, peptide start residue: 641) (UniProt Q86XN8) | -0.439 |
| CNPY4 (peptide sequence: SREVLELGQVLDTGKR, peptide start residue: 58) (UniProt Q8N129) | 0.251 |
| UniProt Q8IWZ8 (peptide sequence: EFLYYRK, peptide start residue: 230) | -0.389 |
| ULK2 (peptide sequence: IADFGFAR, peptide start residue: 163) (UniProt Q8IYT8) | -0.0176 |
| UniProt Q86W50 (peptide sequence: VSLNFKDPEAVR, peptide start residue: 42) | -0.0608 |
| HSCB (peptide sequence: SQTEKDFSEK, peptide start residue: 110) (UniProt Q8IWL3) | 0.257 |
| UniProt Q8IUF8 (peptide sequence: QIWNSPAISVK, peptide start residue: 429) | 0.461 |
| DCP2 (peptide sequence: QPLQQKPYNNHSEMSDLLK, peptide start residue: 294) (UniProt Q8IU60) | 0.58 |
| UniProt Q8IYT2 (peptide sequence: DCAIQYFMQK, peptide start residue: 398) | 0.214 |
| CEP57L1 (peptide sequence: DISIQLSSAQSR, peptide start residue: 114) (UniProt Q8IYX8) | 0.555 |
| FTSJ3 (peptide sequence: KAEAVVNTVDISEREK, peptide start residue: 763) (UniProt Q8IY81) | 0.53 |
| TTC5 (peptide sequence: ISQQALSAYAQAEKVDRK, peptide start residue: 202) (UniProt Q8N0Z6) | 0.248 |
| MON1A (peptide sequence: HVFVLSEAGKPVYSR, peptide start residue: 254) (UniProt Q86VX9) | 0.338 |
| N4BP2 (peptide sequence: HELSNFVGDWPVDK, peptide start residue: 782) (UniProt Q86UW6) | 0.32 |
| RCOR2 (peptide sequence: DFGAIAEVIGNK, peptide start residue: 350) (UniProt Q8IZ40) | 0.512 |
| CUL9 (peptide sequence: LQAYPEELIR, peptide start residue: 18) (UniProt Q8IWT3) | -0.435 |

| Target | log2 fold change |
| --- | --- |
| CCDC50 (peptide sequence: LVQHDLQVAK, peptide start residue: 51) (UniProt Q8IVM0) | -0.205 |
| UniProt Q8IUI4 (peptide sequence: FAPTVSDLLK, peptide start residue: 188) | 0.126 |
| UniProt Q86VE0 (peptide sequence: RTGQEVQKR, peptide start residue: 71) | 0.0459 |
| SBF2 (peptide sequence: AATLYSQYTSK, peptide start residue: 1729) (UniProt Q86WG5) | -0.165 |
| UniProt Q8IZQ5 (peptide sequence: LKFPEPQEVVEELKK, peptide start residue: 105) | 0.467 |
| RHPN2 (peptide sequence: SASTLCLPSVGAARPQVK, peptide start residue: 652) (UniProt Q8IUC4) | -0.506 |
| UniProt Q8IX01 (peptide sequence: CSLKPEHR, peptide start residue: 371) | 1.22 |
| LONP2 (peptide sequence: EHILEDEK, peptide start residue: 602) (UniProt Q86WA8) | 0.147 |
| UniProt Q8IVE0 (peptide sequence: LQAAQEELR, peptide start residue: 629) | -0.229 |
| ZNF100 (peptide sequence: AFNWFSTLTTHR, peptide start residue: 241) (UniProt Q8IYN0) | 0.604 |
| UniProt Q86YB8 (peptide sequence: LQTQGLGTALK, peptide start residue: 403) | -0.00297 |
| ASPM (peptide sequence: YAVQVLLNVSKYEK, peptide start residue: 3318) (UniProt Q8IZT6) | -0.664 |
| YANK3 (peptide sequence: DAAEPVEDEAER, peptide start residue: 459) (UniProt Q86UX6) | 0.25 |
| CARM1 (peptide sequence: SSNLLDLK, peptide start residue: 463) (UniProt Q86X55) | -0.245 |
| PTOV1 (peptide sequence: VIANQQQVLQR, peptide start residue: 393) (UniProt Q86YD1) | -0.0793 |
| UniProt Q86YG4 (peptide sequence: ERLEELK, peptide start residue: 353) | -0.0472 |
| UniProt Q86X10 (peptide sequence: HRPFPEEVDKIPFVK, peptide start residue: 1025) | -0.264 |
| ANKMY2 (peptide sequence: MHYISCIFQK, peptide start residue: 222) (UniProt Q8IV38) | 0.25 |

Exported as tab-separated lines: part of the list above
Target	log2 fold change
UniProt Q8IWZ8 (peptide sequence: EFLYYRK, peptide start residue: 230)	-0.389
ULK2 (peptide sequence: IADFGFAR, peptide start residue: 163) (UniProt Q8IYT8)	-0.0176
